Literature values in patent publication US12325688B2, “Gingerenone A prodrugs as sensotherapeutics and methods of use” (The U.S.A., as Represented by the Secretary, Department of …, priority 2022, dated 2025).
Some of these results come from one statement about several compounds together. At least one structure is not confirmed: it was looked up by name or label, or the drawing left a doubt.

Settings: increasing circulating EPA and DHA, two randomized clinical trials; cited from earlier work

| SMILES | reduction of frequency and intensity of physical pain |
| --- | --- |
| CC/C=C\C/C=C\C/C=C\C/C=C\C/C=C\C/C=C\CCC(=O)O [DHA, docosahexaenoic acid] | 30-40% |
| CC/C=C\C/C=C\C/C=C\C/C=C\C/C=C\CCCC(=O)O [EPA, eicosapentaenoic acid] | 30-40% |
